Measured values reported in patent US6849256B1, “Inhibition of pathogens by probiotic bacteria” (priority 1999, dated 2005).
At least one structure is not confirmed: it was looked up by name or label, or the drawing left a doubt.

Columns and labels:
[1] = system: Bacillus coagulans, subspecies Hammer (ATCC-31284); experiment: Kirby-Bauer antibiotic susceptibility testing of Bacillus coagulans; assay type: cell-based; conditions: inhibition zone diameter (disk diffusion)
[2] = system: Bacillus coagulans, subspecies Hammer (ATCC-31284); experiment: Vitek machine-based antibiotic susceptibility testing of Bacillus coagulans; assay type: cell-based; conditions: optical density of culture

## CN(C)[C@@H]1C(O)=C(C(N)=O)C(=O)[C@@]2(O)C(O)=C3C(=O)c4c(O)cccc4[C@@](C)(O)[C@H]3C[C@@H]12 [tetracycline]
[1]
  Susceptibility of Bacillus coagulans to the antibiotic, Kirby-Bauer testing: Intermediate Susceptibility
[2]
  Susceptibility of Bacillus coagulans to the antibiotic, Vitek testing: Resistant
